Laboratory results reported in publication PMC8273247.
No constants are given. Whether binding was seen depends on the method and setting. Some results given as binding are weak or reduced against the parent protein; the word gives no strength.

Protein sequences, listed by entry. Tags and fused reporters are not part of them. Residues count along the entry.
UniProt P0CG63, residues 1-76: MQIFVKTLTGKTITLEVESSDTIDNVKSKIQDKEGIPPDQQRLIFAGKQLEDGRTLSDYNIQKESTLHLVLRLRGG

Target: T1, STAM1 UIM peptide (UniProt Q92783)
T1 sequence (peptide): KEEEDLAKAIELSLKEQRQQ
Assay: peptide or protein array; peptide SPOT array (Intavis) on membrane, blocked overnight at 4°C in TBS (137 mM NaCl, 2.7 mM KCl, 50 mM Tris, pH 7.0) with 5% nonfat dry milk; incubated with 2 mg/ml 6His-TEV-Ubiquitin for 3 h at room temperature; detected with anti-6His antibody and AP-coupled secondary antibody; both purified

How did the binding turn out when “recombinant yeast ubiquitin (6His-TEV-Ubiquitin) (from UniProt P0CG63 1-76)” was run?
Its binding is “binds”.
